Test results taken from the supplement of paper PMC10849652.
This is one part of the list.

Protein sequences, listed by entry. Tags and fused reporters are not part of them. Lines headed by an entry give the natural chain unless they say otherwise; changes in a name come on top.
UniProt Q16739: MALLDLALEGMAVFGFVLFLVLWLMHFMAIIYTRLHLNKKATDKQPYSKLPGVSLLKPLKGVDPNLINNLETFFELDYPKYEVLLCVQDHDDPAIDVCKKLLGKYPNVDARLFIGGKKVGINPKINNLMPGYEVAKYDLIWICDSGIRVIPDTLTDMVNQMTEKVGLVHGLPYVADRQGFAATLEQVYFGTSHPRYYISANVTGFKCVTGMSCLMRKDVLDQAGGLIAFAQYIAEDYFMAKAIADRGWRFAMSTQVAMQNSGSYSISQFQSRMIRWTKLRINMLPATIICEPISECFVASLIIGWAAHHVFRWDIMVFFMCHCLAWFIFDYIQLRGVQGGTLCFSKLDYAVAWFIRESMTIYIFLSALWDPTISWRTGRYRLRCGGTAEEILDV
UniProt Q6ZU65, whole entry, looked up: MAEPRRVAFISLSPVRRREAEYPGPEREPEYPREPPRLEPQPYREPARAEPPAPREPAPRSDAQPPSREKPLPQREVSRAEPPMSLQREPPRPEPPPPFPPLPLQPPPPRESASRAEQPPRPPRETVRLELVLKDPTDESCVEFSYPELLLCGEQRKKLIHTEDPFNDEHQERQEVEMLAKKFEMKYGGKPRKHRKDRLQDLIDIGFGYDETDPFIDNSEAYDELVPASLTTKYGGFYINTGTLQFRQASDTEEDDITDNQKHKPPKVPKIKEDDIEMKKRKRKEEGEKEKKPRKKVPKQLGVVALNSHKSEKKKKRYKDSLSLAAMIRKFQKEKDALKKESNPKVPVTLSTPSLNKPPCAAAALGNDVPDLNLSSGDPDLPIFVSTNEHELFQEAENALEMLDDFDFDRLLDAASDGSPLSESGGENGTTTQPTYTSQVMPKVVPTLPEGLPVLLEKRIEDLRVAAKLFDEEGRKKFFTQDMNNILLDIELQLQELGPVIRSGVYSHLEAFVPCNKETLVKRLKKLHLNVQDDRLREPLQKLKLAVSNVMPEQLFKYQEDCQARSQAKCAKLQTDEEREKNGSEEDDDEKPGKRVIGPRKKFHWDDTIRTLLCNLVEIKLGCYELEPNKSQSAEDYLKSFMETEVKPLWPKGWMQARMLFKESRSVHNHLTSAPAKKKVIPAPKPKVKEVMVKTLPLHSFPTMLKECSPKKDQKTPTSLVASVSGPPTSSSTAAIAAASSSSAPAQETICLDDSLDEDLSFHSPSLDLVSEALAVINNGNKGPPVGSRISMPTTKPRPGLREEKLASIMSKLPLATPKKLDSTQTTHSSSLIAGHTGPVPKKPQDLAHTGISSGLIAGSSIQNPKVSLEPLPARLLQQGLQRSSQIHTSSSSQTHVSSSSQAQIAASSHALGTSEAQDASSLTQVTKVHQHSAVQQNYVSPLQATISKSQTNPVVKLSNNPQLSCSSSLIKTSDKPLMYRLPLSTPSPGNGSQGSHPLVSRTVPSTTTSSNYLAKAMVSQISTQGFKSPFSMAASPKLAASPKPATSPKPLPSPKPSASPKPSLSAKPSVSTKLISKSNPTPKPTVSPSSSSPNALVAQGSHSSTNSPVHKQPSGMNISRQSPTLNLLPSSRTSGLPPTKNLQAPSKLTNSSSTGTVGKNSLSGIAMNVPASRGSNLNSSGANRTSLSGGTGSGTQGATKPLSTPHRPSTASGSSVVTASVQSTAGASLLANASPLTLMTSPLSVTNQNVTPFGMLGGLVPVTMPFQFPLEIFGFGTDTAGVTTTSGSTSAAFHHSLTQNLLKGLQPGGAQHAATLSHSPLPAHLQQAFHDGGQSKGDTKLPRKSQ
UniProt Q9NZI7: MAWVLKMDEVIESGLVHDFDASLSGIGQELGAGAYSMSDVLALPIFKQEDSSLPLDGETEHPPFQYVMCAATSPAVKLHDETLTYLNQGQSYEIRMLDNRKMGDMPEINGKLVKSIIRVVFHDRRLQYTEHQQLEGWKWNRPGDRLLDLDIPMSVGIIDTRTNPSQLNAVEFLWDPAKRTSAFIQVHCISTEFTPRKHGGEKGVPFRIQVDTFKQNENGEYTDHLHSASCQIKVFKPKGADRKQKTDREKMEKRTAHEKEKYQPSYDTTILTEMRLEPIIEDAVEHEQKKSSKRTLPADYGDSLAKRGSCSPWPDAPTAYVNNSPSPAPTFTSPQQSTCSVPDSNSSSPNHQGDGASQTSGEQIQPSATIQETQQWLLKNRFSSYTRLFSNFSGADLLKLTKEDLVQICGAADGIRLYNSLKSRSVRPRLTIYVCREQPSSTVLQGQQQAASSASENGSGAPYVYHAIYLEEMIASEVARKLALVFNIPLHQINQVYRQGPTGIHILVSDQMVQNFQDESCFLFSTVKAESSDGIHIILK
UniProt Q96JH7: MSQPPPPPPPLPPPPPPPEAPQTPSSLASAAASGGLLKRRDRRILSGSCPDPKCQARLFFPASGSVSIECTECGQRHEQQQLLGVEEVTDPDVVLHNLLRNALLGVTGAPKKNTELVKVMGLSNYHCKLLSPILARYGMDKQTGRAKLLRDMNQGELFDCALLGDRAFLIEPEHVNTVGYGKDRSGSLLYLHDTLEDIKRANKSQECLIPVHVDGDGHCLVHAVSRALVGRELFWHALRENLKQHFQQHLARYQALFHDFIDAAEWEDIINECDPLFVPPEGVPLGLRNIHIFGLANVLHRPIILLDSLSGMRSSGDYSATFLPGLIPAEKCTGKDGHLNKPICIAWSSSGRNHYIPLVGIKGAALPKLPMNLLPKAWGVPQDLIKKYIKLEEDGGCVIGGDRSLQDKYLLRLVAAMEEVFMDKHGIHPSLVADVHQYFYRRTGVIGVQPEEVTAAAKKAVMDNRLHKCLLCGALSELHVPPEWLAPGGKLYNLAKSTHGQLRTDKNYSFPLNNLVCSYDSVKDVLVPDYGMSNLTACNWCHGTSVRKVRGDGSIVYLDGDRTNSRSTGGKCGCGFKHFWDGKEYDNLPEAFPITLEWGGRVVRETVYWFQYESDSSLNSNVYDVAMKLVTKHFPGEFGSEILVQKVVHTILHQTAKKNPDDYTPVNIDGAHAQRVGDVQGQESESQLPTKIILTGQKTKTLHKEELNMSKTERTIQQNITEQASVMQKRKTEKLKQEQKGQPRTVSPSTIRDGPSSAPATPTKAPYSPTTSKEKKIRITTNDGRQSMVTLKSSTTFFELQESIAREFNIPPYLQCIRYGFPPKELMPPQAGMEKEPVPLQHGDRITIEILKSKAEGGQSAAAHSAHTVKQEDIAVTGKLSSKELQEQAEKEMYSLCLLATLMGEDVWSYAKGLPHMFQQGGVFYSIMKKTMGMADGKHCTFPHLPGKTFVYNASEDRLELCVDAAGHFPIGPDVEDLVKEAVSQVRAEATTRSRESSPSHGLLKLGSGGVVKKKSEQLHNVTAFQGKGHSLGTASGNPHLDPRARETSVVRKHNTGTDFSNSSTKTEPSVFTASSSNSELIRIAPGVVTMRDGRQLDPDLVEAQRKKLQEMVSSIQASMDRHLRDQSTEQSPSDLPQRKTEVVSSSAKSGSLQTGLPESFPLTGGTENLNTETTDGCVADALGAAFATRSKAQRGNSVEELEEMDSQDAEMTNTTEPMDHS
UniProt Q9Y5K5, whole entry, looked up: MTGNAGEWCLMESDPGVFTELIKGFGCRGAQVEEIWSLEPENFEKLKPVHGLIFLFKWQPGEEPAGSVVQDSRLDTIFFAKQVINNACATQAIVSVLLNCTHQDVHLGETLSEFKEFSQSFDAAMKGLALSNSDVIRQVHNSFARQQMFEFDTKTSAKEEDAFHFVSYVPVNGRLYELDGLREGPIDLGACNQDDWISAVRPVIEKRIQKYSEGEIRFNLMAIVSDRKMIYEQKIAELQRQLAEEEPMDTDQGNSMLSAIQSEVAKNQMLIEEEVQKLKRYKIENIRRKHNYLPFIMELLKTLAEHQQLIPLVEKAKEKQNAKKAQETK
UniProt Q8IZJ1, whole entry, looked up: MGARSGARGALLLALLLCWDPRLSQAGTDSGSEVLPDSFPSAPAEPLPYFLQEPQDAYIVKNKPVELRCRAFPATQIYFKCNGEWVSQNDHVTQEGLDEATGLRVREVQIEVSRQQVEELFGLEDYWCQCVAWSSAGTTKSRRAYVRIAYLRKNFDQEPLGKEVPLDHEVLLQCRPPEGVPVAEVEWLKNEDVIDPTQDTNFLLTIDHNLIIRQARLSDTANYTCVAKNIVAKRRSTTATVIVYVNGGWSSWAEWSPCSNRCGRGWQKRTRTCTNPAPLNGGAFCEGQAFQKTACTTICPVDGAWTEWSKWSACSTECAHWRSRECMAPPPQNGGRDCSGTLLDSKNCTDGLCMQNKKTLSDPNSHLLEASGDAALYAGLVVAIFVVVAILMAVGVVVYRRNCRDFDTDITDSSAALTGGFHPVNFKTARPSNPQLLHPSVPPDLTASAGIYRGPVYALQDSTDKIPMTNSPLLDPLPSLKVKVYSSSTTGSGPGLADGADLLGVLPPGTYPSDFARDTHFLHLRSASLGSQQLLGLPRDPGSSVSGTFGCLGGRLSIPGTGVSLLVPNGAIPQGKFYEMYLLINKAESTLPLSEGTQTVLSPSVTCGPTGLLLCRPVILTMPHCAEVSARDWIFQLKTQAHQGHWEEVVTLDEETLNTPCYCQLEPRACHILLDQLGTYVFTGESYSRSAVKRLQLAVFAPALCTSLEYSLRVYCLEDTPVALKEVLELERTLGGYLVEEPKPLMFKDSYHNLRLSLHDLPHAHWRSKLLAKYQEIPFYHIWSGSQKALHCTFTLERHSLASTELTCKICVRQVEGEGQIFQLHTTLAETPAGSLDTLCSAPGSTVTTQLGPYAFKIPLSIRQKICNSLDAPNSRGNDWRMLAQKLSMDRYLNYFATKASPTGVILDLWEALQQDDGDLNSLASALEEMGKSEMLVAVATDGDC
UniProt Q9BQ65: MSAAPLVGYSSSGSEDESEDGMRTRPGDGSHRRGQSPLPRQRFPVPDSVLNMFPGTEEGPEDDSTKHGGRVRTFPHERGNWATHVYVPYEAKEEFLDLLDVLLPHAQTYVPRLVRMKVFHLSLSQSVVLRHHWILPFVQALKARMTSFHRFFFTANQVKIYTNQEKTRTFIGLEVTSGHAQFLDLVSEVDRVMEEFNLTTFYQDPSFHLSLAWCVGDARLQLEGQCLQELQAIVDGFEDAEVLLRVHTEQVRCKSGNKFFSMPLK
UniProt O94782: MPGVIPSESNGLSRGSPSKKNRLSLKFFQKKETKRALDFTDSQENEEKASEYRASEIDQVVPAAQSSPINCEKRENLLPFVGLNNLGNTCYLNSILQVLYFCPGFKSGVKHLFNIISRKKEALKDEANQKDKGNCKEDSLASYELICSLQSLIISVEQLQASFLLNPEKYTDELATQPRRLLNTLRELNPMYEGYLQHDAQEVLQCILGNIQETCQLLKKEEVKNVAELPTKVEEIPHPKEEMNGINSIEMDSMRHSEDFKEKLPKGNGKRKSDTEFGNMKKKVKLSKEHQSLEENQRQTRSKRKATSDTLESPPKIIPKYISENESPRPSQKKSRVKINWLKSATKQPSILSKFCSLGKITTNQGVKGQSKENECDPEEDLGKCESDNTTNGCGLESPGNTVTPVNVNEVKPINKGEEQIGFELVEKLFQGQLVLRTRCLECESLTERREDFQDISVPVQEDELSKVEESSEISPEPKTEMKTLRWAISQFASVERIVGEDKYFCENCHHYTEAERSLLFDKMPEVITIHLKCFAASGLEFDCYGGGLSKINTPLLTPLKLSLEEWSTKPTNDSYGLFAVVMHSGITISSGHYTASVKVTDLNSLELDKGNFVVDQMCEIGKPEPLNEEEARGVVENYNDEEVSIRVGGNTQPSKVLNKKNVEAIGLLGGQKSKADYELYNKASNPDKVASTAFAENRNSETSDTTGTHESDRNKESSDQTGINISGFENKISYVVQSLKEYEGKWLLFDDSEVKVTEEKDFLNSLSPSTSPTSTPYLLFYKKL
UniProt P62068, whole entry, looked up: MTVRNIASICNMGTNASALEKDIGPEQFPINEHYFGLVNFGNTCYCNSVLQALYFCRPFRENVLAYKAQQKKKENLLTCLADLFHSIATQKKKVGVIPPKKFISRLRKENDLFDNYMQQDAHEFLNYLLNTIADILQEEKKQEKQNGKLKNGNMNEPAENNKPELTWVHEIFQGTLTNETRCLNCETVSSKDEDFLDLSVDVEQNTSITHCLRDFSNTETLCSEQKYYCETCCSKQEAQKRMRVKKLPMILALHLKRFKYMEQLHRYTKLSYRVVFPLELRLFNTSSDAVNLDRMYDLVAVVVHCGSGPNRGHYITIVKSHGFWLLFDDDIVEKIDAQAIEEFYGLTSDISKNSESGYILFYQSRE
UniProt Q9BRU9: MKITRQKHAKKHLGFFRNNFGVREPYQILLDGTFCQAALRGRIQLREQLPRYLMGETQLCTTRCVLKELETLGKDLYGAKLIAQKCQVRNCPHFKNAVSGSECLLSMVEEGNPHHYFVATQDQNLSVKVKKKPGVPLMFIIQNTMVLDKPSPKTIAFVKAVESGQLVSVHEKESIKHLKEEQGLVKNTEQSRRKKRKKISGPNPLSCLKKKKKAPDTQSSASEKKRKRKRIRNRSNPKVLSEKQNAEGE

Assays:
Test in all cases: log2 fold change, soluble protein after heating vs DMSO (PISA); higher = thermal stabilisation; K562 cells, 10 uM, 30 min; active = over 0.2 and 3.5 SD of the protein, either way, in both replicates (recomputed)
dasatinib = compound: Cc1nc(Nc2ncc(C(=O)Nc3c(C)cccc3Cl)s2)cc(N2CCN(CCO)CC2)n1 [dasatinib]
Outline: (§1)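 K562 cells at 2×10^6 cells/mL were exposed to 10 μM compound for 30 min, then aliquots were heated for 3 min across 48°C-58°C, pooled, and extracted in PBS containing 0.5% NP-40 at 4°C. The supernatant after 21,000xg for 90 min was taken as soluble protein and measured by TMTpro 16plex LC-MS/MS with channel sums equalised. Thermal stability is reported relative to control samples, with values from duplicates. Fold changes are given on a log2 scale.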

bafetinib = compound: Cc1ccc(NC(=O)c2ccc(CN3CC[C@H](N(C)C)C3)c(C(F)(F)F)c2)cc1Nc1nccc(-c2cncnc2)n1 [bafetinib]
Outline: as §1

nilotinib = compound: Cc1cn(-c2cc(NC(=O)c3ccc(C)c(Nc4nccc(-c5cccnc5)n4)c3)cc(C(F)(F)F)c2)cn1 [nilotinib]
Outline: as §1

[1] = compound: Cc1nc(Nc2n[nH]c3c2CN(C(=O)N[C@H](CN(C)C)c2ccccc2)C3(C)C)c2sccc2n1
Outline: as §1

[2] = compound: Cc1ncc(-c2ccnc(Nc3ccc(S(C)(=O)=O)cc3)n2)n1C(C)C
Outline: as §1

[3] = compound: Cn1cc(-c2ccc3c(c2)CCN3C(=O)Cc2cccc(C(F)(F)F)c2)c2c(N)ncnc21
Outline: as §1

[4] = compound: Cn1cc(-c2ccc3nnc(C(F)(F)c4ccc5ncccc5c4)n3n2)cn1
Outline: as §1

tipifarnib = compound: Cn1cncc1[C@@](N)(c1ccc(Cl)cc1)c1ccc2c(c1)c(-c1cccc(Cl)c1)cc(=O)n2C [tipifarnib]
Outline: as §1

mubritinib = compound: FC(F)(F)c1ccc(/C=C/c2nc(COc3ccc(CCCCn4ccnn4)cc3)co2)cc1 [mubritinib]
Outline: as §1

[5] = compound: NC(=O)Nc1cc(-c2cccc(F)c2)sc1C(=O)N[C@H]1CCCNC1
Outline: as §1

[6] = compound: NC(=O)c1cnc(N[C@@H]2CCCC[C@@H]2N)nc1Nc1cccc(-n2nccn2)c1
Outline: as §1

[7] = compound: NC1(c2ccc(-c3nc4ccn5c(=O)[nH]nc5c4cc3-c3ccccc3)cc2)CCC1
Outline: as §1

[8] = compound: NCC(=O)Nc1ccc(-n2nc(C(F)(F)F)cc2-c2ccc3c(ccc4ccccc43)c2)cc1
Outline: as §1

entinostat = compound: Nc1ccccc1NC(=O)c1ccc(CNC(=O)OCc2cccnc2)cc1 [entinostat]
Outline: as §1

citarinostat = compound: O=C(CCCCCCNC(=O)c1cnc(N(c2ccccc2)c2ccccc2Cl)nc1)NO [citarinostat]
Outline: as §1

silmitasertib = compound: O=C(O)c1ccc2c(c1)nc(Nc1cccc(Cl)c1)c1ccncc12 [silmitasertib]
Outline: as §1

[9] = compound: c1cc(OCCN2CCCCC2)cc(-c2n[nH]c3ccc(-c4nnc[nH]4)cc23)c1
Outline: as §1

[10] = compound: O=C1NC(=O)C(c2cnc3ccccn23)=C1c1cn2c3c(cc(F)cc13)CN(C(=O)N1CCCCC1)CC2
Outline: as §1

[11] = compound: Cc1cccc(CC(=O)N2CCc3c2ccc(-c2cn(C)c4ncnc(N)c24)c3F)n1
Outline: as §1

vorinostat = compound: O=C(CCCCCCC(=O)Nc1ccccc1)NO [vorinostat]
Outline: as §1

Measured: log2 fold change

USP4 (UniProt Q13107)
inactive: dasatinib -0.002

USP13 (UniProt Q92995)
inactive: bafetinib -0.034 | nilotinib -0.028 | [1] -0.007 | dasatinib -0.044 | [2] 0.03 | [3] 0.114 | [4] -0.01 | tipifarnib -0.112 | mubritinib -0.002 | [5] -0.254 | [6] 0.139 | [7] 0.01 | [8] 0.063 | entinostat -0.087 | citarinostat 0.077 | silmitasertib 0.018 | [9] 0.042

UGCG (UniProt Q16739)
inactive: bafetinib -0.003 | dasatinib -0.044 | [3] -0.015 | [4] -0.157 | tipifarnib 0.006 | mubritinib -0.003 | [5] -0.01 | [6] -0.157 | [7] -0.059 | [8] 0.052 | entinostat -0.14 | citarinostat -0.211 | silmitasertib 0.101 | [10] -0.028 | [9] 0.097

VAV1 (UniProt P15498)
inactive: [11] -0.02 | [3] -0.309 | [4] -0.108 | mubritinib 0.14 | [6] -0.153 | [7] -0.249 | [8] -0.009 | vorinostat 0.191 | silmitasertib 0.039 | [10] 0.077

UBN2 (UniProt Q6ZU65)
inactive: nilotinib -0.027 | [1] 0.003 | [2] 0.128 | [3] -0.007 | [8] -0.048

USP12 (UniProt O75317)
inactive: [11] -0.091 | dasatinib 0.023 | [3] 0.016 | [4] -0.008 | mubritinib -0.3 | [6] -0.043 | [7] -0.299 | [8] 0.002 | vorinostat -0.113 | citarinostat -0.001 | silmitasertib -0.043 | [9] 0.102

Pulled one by one from the entries so far (two):
UGCG (UniProt Q16739)
inactive: bafetinib -0.003 | dasatinib -0.044 | [3] -0.015 | [4] -0.157 | tipifarnib 0.006 | mubritinib -0.003 | [5] -0.01 | [6] -0.157 | [7] -0.059 | [8] 0.052 | entinostat -0.14 | citarinostat -0.211 | silmitasertib 0.101 | [10] -0.028 | [9] 0.097

VAV1 (UniProt P15498)
inactive: [11] -0.02 | [3] -0.309 | [4] -0.108 | mubritinib 0.14 | [6] -0.153 | [7] -0.249 | [8] -0.009 | vorinostat 0.191 | silmitasertib 0.039 | [10] 0.077

Following part.

USP33 (UniProt Q8TEY7)
inactive: dasatinib -0.257 | [4] -0.146 | [5] 0.056 | [6] 0.257 | [8] -0.221 | entinostat 0.006

USP48 (UniProt Q86UV5)
inactive: bafetinib 0.045 | nilotinib -0.294 | [1] -0.495 | [2] -0.016 | mubritinib 0.117 | [5] -0.077 | [7] -0.242 | entinostat 0.164 | citarinostat -0.024 | silmitasertib 0.185 | [9] 0.076

USP20 (UniProt Q9Y2K6)
inactive: bafetinib -0.023 | nilotinib -0.283 | [1] -0.182 | dasatinib -0.132 | [2] 0.12 | [3] -0.249 | [4] -0.136 | tipifarnib -0.045 | mubritinib 0.042 | [5] -0.11 | [6] 0.005 | [7] -0.106 | [8] 0.214 | entinostat 0.165 | citarinostat 0.229 | silmitasertib 0.154 | [10] -0.011 | [9] 0.161

ULBP2 (UniProt Q9BZM5)
inactive: nilotinib 0.137 | [1] -0.166 | [2] -0.025 | [3] -0.089 | [4] 0 | tipifarnib -0.151 | mubritinib -0.015 | [5] 0.009 | [7] -0.113 | entinostat -0.027 | citarinostat -0.012 | silmitasertib -0.061 | [10] 0.114 | [9] -0.2

UBP1 (UniProt Q9NZI7)
inactive: bafetinib -0.014 | nilotinib 0.041 | [1] -0.045 | dasatinib -0.265 | [2] -0.003 | [3] 0.131 | [4] -0.014 | mubritinib 0.037 | [5] 0.035 | [7] -0.071 | [8] -0.054 | entinostat -0.074 | silmitasertib 0.016 | [10] 0.33

VCPIP1 (UniProt Q96JH7)
inactive: [11] -0.241 | [5] 0.466 | [8] 0.06 | entinostat 0.108 | vorinostat -0.132 | [10] 0.259

UCHL5 isoform 3 (UniProt Q9Y5K5)
inactive: bafetinib 0.151 | nilotinib -0.104 | [1] 0.076 | [2] -0.08 | [3] -0.052 | [4] -0.064 | tipifarnib -0.085 | mubritinib 0.049 | [5] 0.037 | [6] 0.156 | [7] -0.277 | [8] 0.05 | entinostat 0.098 | citarinostat 0.113 | silmitasertib -0.002 | [10] -0.054 | [9] -0.028

UNC5B (UniProt Q8IZJ1)
inactive: dasatinib -0.013 | [8] 0.045 | [10] 0.207

USB1 (UniProt Q9BQ65)
inactive: [11] 0.143 | [3] 0.031 | tipifarnib 0.012 | [8] -0.006 | vorinostat 0.095

USP1 (UniProt O94782)
inactive: bafetinib -0.122 | nilotinib 0.03 | [1] -0.138 | [2] 0.054 | [3] 0.266 | [4] -0.072 | [5] 0.024 | [6] 0.186 | [8] -0.014 | entinostat 0.281 | citarinostat 0.036 | [10] 0.114 | [9] -0.107

USP46 (UniProt P62068)
inactive: tipifarnib -0.022 | [5] -0.081 | [8] 0.041 | entinostat -0.013 | [10] 0.18

UTP23 (UniProt Q9BRU9)
inactive: nilotinib -0.095 | [1] -0.075 | dasatinib -0.072 | [2] 0.218 | [3] -0.163
